{"sequences": {"note": "Sequences of proteins named here, by UniProt entry; tags and fusion partners are left off. A change or cut given only in a name is not applied to a line headed by its entry.", "UniProt O43683": "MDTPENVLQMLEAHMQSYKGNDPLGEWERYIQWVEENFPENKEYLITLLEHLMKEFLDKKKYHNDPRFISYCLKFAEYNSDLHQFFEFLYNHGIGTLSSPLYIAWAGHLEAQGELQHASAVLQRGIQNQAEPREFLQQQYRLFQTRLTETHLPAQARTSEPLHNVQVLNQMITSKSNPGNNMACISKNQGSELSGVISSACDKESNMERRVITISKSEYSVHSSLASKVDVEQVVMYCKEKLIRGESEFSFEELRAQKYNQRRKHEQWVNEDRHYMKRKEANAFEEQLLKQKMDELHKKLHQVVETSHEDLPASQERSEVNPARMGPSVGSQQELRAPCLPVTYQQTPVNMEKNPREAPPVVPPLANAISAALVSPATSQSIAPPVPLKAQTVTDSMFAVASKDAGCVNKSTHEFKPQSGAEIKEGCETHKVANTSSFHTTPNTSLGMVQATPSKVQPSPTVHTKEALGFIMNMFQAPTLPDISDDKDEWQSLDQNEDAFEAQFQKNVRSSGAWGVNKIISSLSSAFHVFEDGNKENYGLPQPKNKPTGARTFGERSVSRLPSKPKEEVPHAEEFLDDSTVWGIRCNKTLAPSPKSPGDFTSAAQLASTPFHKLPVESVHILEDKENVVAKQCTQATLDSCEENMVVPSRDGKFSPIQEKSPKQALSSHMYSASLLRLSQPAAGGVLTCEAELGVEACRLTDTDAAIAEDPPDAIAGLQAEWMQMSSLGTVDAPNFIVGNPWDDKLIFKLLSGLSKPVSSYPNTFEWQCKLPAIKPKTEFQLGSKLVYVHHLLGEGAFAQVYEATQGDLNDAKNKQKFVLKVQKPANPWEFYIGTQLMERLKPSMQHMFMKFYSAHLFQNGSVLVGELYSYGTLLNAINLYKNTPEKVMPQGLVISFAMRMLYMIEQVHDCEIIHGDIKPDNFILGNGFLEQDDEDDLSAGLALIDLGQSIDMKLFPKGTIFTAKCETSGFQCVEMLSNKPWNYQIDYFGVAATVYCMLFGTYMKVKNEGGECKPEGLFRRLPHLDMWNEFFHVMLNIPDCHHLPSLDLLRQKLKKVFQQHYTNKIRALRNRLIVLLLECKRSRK", "UniProt Q15172": "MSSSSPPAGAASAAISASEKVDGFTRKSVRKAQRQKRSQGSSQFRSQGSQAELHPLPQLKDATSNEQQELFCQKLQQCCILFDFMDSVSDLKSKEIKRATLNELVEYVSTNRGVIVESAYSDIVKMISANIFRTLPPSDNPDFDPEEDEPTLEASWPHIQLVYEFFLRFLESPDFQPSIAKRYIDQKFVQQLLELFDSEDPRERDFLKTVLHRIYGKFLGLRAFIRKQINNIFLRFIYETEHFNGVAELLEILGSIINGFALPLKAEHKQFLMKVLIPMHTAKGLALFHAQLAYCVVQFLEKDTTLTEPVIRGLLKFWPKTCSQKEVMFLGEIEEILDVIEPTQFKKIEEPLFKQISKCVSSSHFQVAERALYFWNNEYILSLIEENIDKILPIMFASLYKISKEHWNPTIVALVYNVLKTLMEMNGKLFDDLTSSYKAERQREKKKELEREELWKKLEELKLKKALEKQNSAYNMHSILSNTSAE"}, "source": "paper PMC10155811", "molecular_target": "YFP-Bub1ΔBubR1 (human) (UniProt O43683)", "test": "co-IP; YFP-tagged Bub1 or BubR1 proteins precipitated with GFP-Trap agarose beads from lysates of nocodazole-arrested mitotic HeLa cells, low-salt buffer (Kruse et al., 2013); quantitative western blot for B56α and YFP", "note": "These are yes or no findings as the source states them, for the method shown. Binding seen in cells or lysates may run through a third protein."}
{"substance": "PP2A-B56 (detected as B56α) (from UniProt Q15172 1-486)", "values": [{"measurement": "binding", "result": "no binding"}]}
